Literature values in patent US20150258220A1, “MAGNETIC RESONANCE IMAGING AND/OR SPECTROSCOPY CONTRAST AGENTS AND METHODS OF USE THEREOF” (Duke University, priority 2008, published 2015).
At least one compound was matched to its structure with a doubt left.

Settings: 13C, at 14.1 T; cited from earlier work

With CC(=O)C(=O)O [pyruvate] as the molecule, how does the “T1 relaxation time for the C1 position” value read?
Its value is 40 s.
